# Assay results reported in PubChem BioAssay AID2685 (National Center for Advancing Translational Sciences (NCATS), 2010).
# Some of the results follow. The main result of the screen is listed elsewhere. These columns were measured beside it and carry no call. Most of these compounds were active or inconclusive in the main read-out, so they are no random draw. The note in brackets gives the kind of curve behind each potency; many fits are weak.
# Assay: qHTS Assay for Lipid Storage Modulators in Drosophila S3 Cells;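 as to cell number change: cells counted by Cell Tracker Red CMTPX staining in the red channel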
# Conditions: BODIPY lipid droplet fluorescence, 18-24 h; for cell number change: measured here: cell count max response, cells fed with added oleic acid
# Procedure, shortened: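 Laser-scanning cytometry quantifies lipid droplet accumulation (500–530 nm total intensity; droplet/cell object ratio) in oleic acid-fed (400 uM added) Drosophila S3 cells treated with a concentration series. 20 uM Triacsin C defined 100% inhibition.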
# [1] = measured here: lipid fluorescence (Fed channel) AC50, cells fed with added oleic acid
# [2] = measured here: cell number channel AC50, cells fed with added oleic acid
smiles,measurement,setting,value
O=C(CSc1nnc(-c2ccc(S(=O)(=O)N3CCCC3)cc2)o1)NCc1ccccc1,cell number change,,-2.24%
CC1CCN(S(=O)(=O)c2ccc(NC(=O)c3cccs3)cc2)CC1,cell number change,,-19.4%
Cn1c(CCN2CCCCC2)nc2cc(NC(=O)C3CCCCC3)ccc21,cell number change,,-6.53%
same,AC50,[1],"1.84 µM [falling, full curve]"
COC(=O)c1ccccc1NC(=O)c1ccc(COc2cccc3ccccc23)o1,AC50,[1],"23.1 µM [rising, single point]"
Cc1ccc(OCC(=O)NCCCNC(=O)c2cccnc2)cc1C,cell number change,,1.67%
C=COCCNC(=S)N1CCOCCOCCN(C(=S)NCCOC=C)CCOCCOCC1,cell number change,,-23.3%
same,AC50,[1],"0.103 µM [falling, full curve, poor fit]"
COc1cc(/C=C(\C#N)c2nc3ccccc3[nH]2)ccc1Oc1ccc([N+](=O)[O-])cn1,cell number change,,11%
same,AC50,[2],"0.146 µM [rising, full curve, poor fit]"
CS(=O)(=O)c1ccc(S(=O)CC(=O)Oc2ccc(Cl)cc2)c([N+](=O)[O-])c1 (configuration not stated),cell number change,,-72.2%
same,AC50,[2],"6.51 µM [falling, partial curve]"
same,AC50,[1],"6.51 µM [falling, full curve]"
Cc1ccc2cn[nH]c2c1N,AC50,[2],"0.731 µM [rising, single point]"
CN(CC(O)CN)CC(O)CN1CCCCC1 (configuration not stated),AC50,[2],"5.17 µM [falling, single point]"
same,AC50,[1],"6.51 µM [falling, partial curve, poor fit]"
CCN(CC)c1ccc(/C=N/NC(=O)c2cc(C)nc3ccccc23)cc1,cell number change,,-7.15%
same,AC50,[1],"0.517 µM [falling, single point]"
Clc1cccc(CSc2ccc(-c3cccnc3)nn2)c1,cell number change,,1.71%
same,AC50,[1],"3.66 µM [rising, single point]"
COc1ccc(S(=O)(=O)N2CCC(C(=O)N(C)Cc3ccc(C)o3)CC2)cc1OC,cell number change,,6.01%
same,AC50,[1],"0.013 µM [rising, full curve, poor fit]"
Cc1ccccc1N/C(=C(/C(Cl)=C(Cl)Cl)[N+](=O)[O-])n1nnc2ccccc21,cell number change,,8.8%
c1ccc2c(c1)NC1(CCCCC1)n1c-2nc2ccccc21,cell number change,,-19.2%
same,AC50,[1],"0.00461 µM [rising, full curve, poor fit]"
O=C1COc2ccc(C(=O)COC(=O)c3ncc(Cl)c(Cl)c3Cl)cc2N1,cell number change,,-4.53%
same,AC50,[2],"0.82 µM [falling, full curve, poor fit]"
CC[C@@]12C(=O)N(c3cccc(Cl)c3)C(=O)N1[C@H](c1ccc(Br)cc1)[C@@H]1C(=O)N(C(C)(C)C)C(=O)[C@@H]12,cell number change,,-30.4%
same,AC50,[2],"29.1 µM [falling, single point]"
COc1ccc(S(=O)(=O)N2CCN(C(=O)CN3C(=O)NC(C)(C)C3=O)CC2)cc1,cell number change,,0.825%
same,AC50,[1],"0.731 µM [rising, single point]"
C#Cc1ccc([C@@H]2C=C(C(=O)NC3CC3)O[C@H](OCC)[C@H]2CCCO)cc1,cell number change,,20.4%
same,AC50,[1],"0.461 µM [rising, full curve, poor fit]"
Nc1c(C(=O)O)sc2nc(-c3ccc(F)cc3)cc(-c3ccccc3)c12,AC50,[2],"0.082 µM [rising, full curve]"
same,AC50,[1],"0.731 µM [rising, partial curve, poor fit]"
Cc1ccc(S(=O)(=O)Nc2c(C)nc3nc(C)[nH]n3c2=O)cc1,cell number change,,67.5%
same,AC50,[2],"29.1 µM [rising, single point]"
same,AC50,[1],"29.1 µM [rising, single point]"
O=C(CC1CCS(=O)(=O)C1)NC1CCCCC1 (configuration not stated),cell number change,,-17%
same,AC50,[1],"0.231 µM [falling, full curve, poor fit]"
CCCCn1c(=NC(=O)c2ccc3c(c2)OCO3)c(C#N)cc2c(=O)n3cccc(C)c3nc21,cell number change,,24.5%
same,AC50,[2],"0.0206 µM [rising, full curve, poor fit]"
same,AC50,[1],"0.058 µM [rising, full curve, poor fit]"
CN(C(=O)CC1C(=O)NCCN1Cc1c(F)cccc1Cl)C1CCOCC1 (configuration not stated),AC50,[1],"6.51 µM [falling, single point]"
Clc1ccc(-c2nnnn2-c2ccc(Cl)cc2)cc1,cell number change,,20.3%
Cc1cccc(Cl)c1NC(=O)N1CCN(c2ccnc3cc(Cl)ccc23)CC1,cell number change,,-36.7%
CCc1ccc2oc(=O)cc(CN3CCN(c4ccc(F)cc4)CC3)c2c1,cell number change,,-98.3%
same,AC50,[2],"18.4 µM [falling, partial curve, poor fit]"
same,AC50,[1],"1.84 µM [falling, full curve, poor fit]"
CCN(CC)S(=O)(=O)c1ccc2[nH]cc(C(=O)NCCc3ccc(OC)c(OC)c3)c(=O)c2c1,cell number change,,74.5%
same,AC50,[2],"2.59 µM [rising, full curve]"
same,AC50,[1],"2.59 µM [rising, full curve]"
COc1cc(OC)c(C2C3=C(CCCC3=O)Nc3nc4ccccc4n32)cc1OC (configuration not stated),cell number change,,-18.3%
COc1ccc(CCNC(=O)CCCN2C(=O)c3ccccc3C2=O)cc1,cell number change,,18.8%
same,AC50,[1],"0.651 µM [falling, single point]"
Cc1cccc(OCC(=O)NC2CCCCCC2)c1C,cell number change,,-7.92%
same,AC50,[1],"0.0164 µM [falling, full curve, poor fit]"
COc1ccc(Nc2oc(COc3ccc(OC)cc3)nc2C#N)cc1,cell number change,,-25.5%
same,AC50,[1],"14.6 µM [falling, single point]"
Cc1ccc2cccc(OCCCOc3ccccc3F)c2n1,cell number change,,-7.33%
CCN(CC)c1nc(-c2ccccc2)cc(C(F)(F)F)c1C#N,cell number change,,52.4%
same,AC50,[2],"1.84 µM [rising, full curve]"
Cc1ccc2nc3c(cc(C(=O)NCc4cccnc4)c(=N)n3C(C)C)c(=O)n2c1,cell number change,,-18.7%
same,AC50,[2],"4.61 µM [falling, single point]"
same,AC50,[1],"1.16 µM [falling, full curve]"
O=C(COC(=O)CCc1c[nH]c2ccccc12)NCc1ccc2c(c1)OCO2,cell number change,,-5.54%
same,AC50,[2],"6.51 µM [falling, single point]"
same,AC50,[1],"6.51 µM [falling, single point]"
Cc1cc(C)nc(N(C#N)Cc2ccccc2)n1,cell number change,,-38.2%
same,AC50,[2],"5.17 µM [falling, full curve, poor fit]"
same,AC50,[1],"18.4 µM [falling, partial curve]"
Cc1nc2sc3c(c2c(=O)o1)CCC3,cell number change,,-53.3%
same,AC50,[2],"29.1 µM [falling, single point]"
same,AC50,[1],"4.61 µM [falling, partial curve]"
Cc1ccc(NC(=O)c2ccccc2O)cc1,cell number change,,-36.2%
same,AC50,[2],"29.1 µM [falling, single point]"
same,AC50,[1],"29.1 µM [falling, single point]"
CC(=O)N1CCCc2cc(S(=O)(=O)N3CCCC(C(=O)N4CCN(c5ccccc5)CC4)C3)ccc21 (configuration not stated),cell number change,,-17.7%
COc1cc(CNCc2ccco2)cc(OC)c1O,cell number change,,16.4%
same,AC50,[1],"29.1 µM [rising, single point]"
COc1ccc(Nc2nc(N)nc(CN3CCC(Cc4ccccc4)CC3)n2)cc1,cell number change,,4.41%
same,AC50,[1],"14.6 µM [rising, partial curve]"
COC(=O)c1cc(Cl)c(NC(=O)c2ccc(C(C)(C)C)cc2)cc1OC,cell number change,,3.84%
COc1ccc(CNC(=O)c2cc3cc(OC)ccc3oc2=O)cc1,cell number change,,21.4%
same,AC50,[1],"29.1 µM [rising, partial curve]"
COc1cc(/C=N/n2cnnc2)ccc1OC(=O)c1ccncc1,cell number change,,-22.3%
same,AC50,[1],"5.17 µM [falling, full curve, poor fit]"
Cn1c(=O)c2nc(-c3ccccc3)oc2c2ccccc21,cell number change,,22.9%
same,AC50,[2],"0.00461 µM [rising, full curve, poor fit]"
same,AC50,[1],"2.91 µM [rising, single point]"
Clc1cccc(Cl)c1Cn1cnc2c(N3CCCCCC3)ncnc21,cell number change,,302%
same,AC50,[2],"14.6 µM [rising, partial curve]"
same,AC50,[1],"2.91 µM [rising, partial curve]"
CC(=O)C1=C(O)C(=O)N(Cc2ccco2)C1c1ccccc1 (configuration not stated),cell number change,,8.76%
same,AC50,[1],"6.51 µM [rising, partial curve, poor fit]"
COc1ccc2c(c1)cc1c(=O)n(CC(=O)NC(C)CCc3ccccc3)nc(C)n12 (configuration not stated),cell number change,,63.7%
same,AC50,[2],"11.6 µM [rising, partial curve]"
COC(=O)c1ccccc1NC(=O)c1cc(-c2ccc(O)cc2)on1,cell number change,,2.29%
CCC(=O)N1CCN(c2ccc(NC(=S)NC(=O)c3cccc([N+](=O)[O-])c3)cc2)CC1,cell number change,,-45.5%
same,AC50,[2],"16.4 µM [falling, partial curve, poor fit]"
same,AC50,[1],"14.6 µM [falling, partial curve]"
COc1ccccc1CNS(=O)(=O)N(C)C,cell number change,,-25.6%
same,AC50,[1],"20.6 µM [falling, single point]"
Cn1c(-c2ccccc2F)cc2onc(-c3ccccc3)c2c1=O,cell number change,,37.3%
same,AC50,[2],"29.1 µM [rising, single point]"
same,AC50,[1],"18.4 µM [rising, partial curve]"
c1ccc(CNc2nc(-c3ccccn3)nc3ccccc23)cc1,cell number change,,-61.1%
same,AC50,[2],"29.1 µM [falling, single point]"
same,AC50,[1],"29.1 µM [falling, single point]"
CCOC(=O)CNC(=O)Cn1cnc2c(nnn2-c2ccc(OC)cc2)c1=O,cell number change,,41.4%
same,AC50,[2],"6.51 µM [rising, full curve, poor fit]"
O=C(NC1CCCC1)c1n[nH]c2ccccc12,cell number change,,25.2%
same,AC50,[2],"0.13 µM [rising, full curve, poor fit]"
O=C(CCl)N(C1CCCC1)C1CCS(=O)(=O)C1 (configuration not stated),cell number change,,23.1%
same,AC50,[1],"29.1 µM [falling, partial curve, poor fit]"
Cn1c(N)c(C(=O)CSc2nn(-c3ccccc3)c(=S)s2)c(=O)n(C)c1=O,cell number change,,81.5%
same,AC50,[2],"1.46 µM [rising, full curve]"

# A section from further up, for reference:
smiles,measurement,setting,value
CCCCn1c(=NC(=O)c2ccc3c(c2)OCO3)c(C#N)cc2c(=O)n3cccc(C)c3nc21,AC50,[2],"0.0206 µM [rising, full curve, poor fit]"
same,AC50,[1],"0.058 µM [rising, full curve, poor fit]"
CN(C(=O)CC1C(=O)NCCN1Cc1c(F)cccc1Cl)C1CCOCC1 (configuration not stated),AC50,[1],"6.51 µM [falling, single point]"
Clc1ccc(-c2nnnn2-c2ccc(Cl)cc2)cc1,cell number change,,20.3%
